PubChem BioAssay AID1259405 – NCATS | 2018
The deposit covers about 50,000 reagents; shown is a random part of them. About 4,000 of all reagents (8%) were called active. 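Mouse siRNA library applied to hamster cells; one well for each siRNA.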 Unmarked entries are inactive. The numbers tell different reagents against one gene apart. Reagent sequences are not shown.

Screen: 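Mouse-designed siRNAs used to find CHO productivity engineering targets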 (primary screen)
Cell system: Chinese hamster CHO-K1 ovary cells with stable secreted eGFP expression
Reagents: single siRNA against mouse genes, 0.8 pmol siRNA per well (2 µl of 400 nM stock)
Time to read-out: 3 days
Measured: 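Percent of the per-plate non-targeting control median for intracellular GFP per well by laser scanning cytometry and for cell viability by ATP luminescence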
Direction: GFP, % of control: higher = more GFP per well, higher productivity; viability (ATP), % of control: higher = more viable cells (more ATP)
Hit rule: 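Called active when intracellular GFP, relative to negative control, is at or above 120%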

Gene,reagent no.,"GFP, % of control","viability (ATP), % of control"
Or2ag18,1,65.9,41.1
Or2ag18,2,80.1,70.5
Or2ag18,3,83.8,89.2
Cdx2,1,79.2,92.3
Cdx2,2,168 (active),113
Cdx2,3,39.6,57.4
Xkrx,1,71.4,58.8
Xkrx,2,70.7,69.6
Xkrx,3,50.7,69.2
Or5b12b,1,117,75.2
Or5b12b,2,90.9,50.6
Or5b12b,3,61.5,79.2
Eef1akmt1,1,56.8,55.5
Eef1akmt1,2,18.5,78.7
Eef1akmt1,3,61.8,48.1
Tas2r138,1,69.5,49.9
Tas2r138,2,50.6,81
Tas2r138,3,49.8,92.2
Morn5,1,84.7,88.5
Morn5,2,60.3,60.7
Morn5,3,109,93
Nubp1,1,79.9,48.4
Nubp1,2,90,81.2
Nubp1,3,44.8,53.8
Lcn10,1,66.6,64.7
Lcn10,2,94.5,76.5
Lcn10,3,56.4,47.8
Fbxl6,1,78.9,78.2
Fbxl6,2,88,66.8
Fbxl6,3,105,91.9
Itgb2,1,102,64.6
Itgb2,2,63.5,62.6
Itgb2,3,55.9,35.2
Gpld1,1,115,77.6
Gpld1,2,92.7,82.7
Gpld1,3,94.5,130
Ermard,1,72.3,92.7
Ermard,2,50.6,52
Ermard,3,115,70.8
Ermard,4,158 (active),121
Ermard,5,82.9,73.5
Ermard,6,89.6,70.9
Ptprf,1,177 (active),111
Ptprf,2,72.1,65.7
Ptprf,3,88.8,112
Gdf15,1,48.7,42.7
Gdf15,2,62.2,57.7
Gdf15,3,94.7,55
Ccdc169,1,72.3,61.6
Ccdc169,2,34.8,24.8
Ccdc169,3,92,88.4
Srp9,1,50.8,68.9
Srp9,2,61.1,88.1
Srp9,3,58.4,81.2
Rras2,1,58,73.8
Rras2,2,93.7,85.8
Rras2,3,75.9,68.6
Ptpn2,1,64.7,79.4
Ptpn2,2,53.8,29.7
Ptpn2,3,86.2,88.7
Grin2a,1,232 (active),83.3
Grin2a,2,83.4,71.8
Grin2a,3,61.8,43.3
Camk1d,1,155 (active),103
Camk1d,2,50.9,35
Camk1d,3,82.9,69.5
Thap7,1,86.9,123
Thap7,2,61.1,78
Thap7,3,48.8,55.7
Cr1l,1,82.6,44.9
Cr1l,2,76.1,70.9
Cr1l,3,75.2,90.8
Taar7a,1,86.4,87.5
Taar7a,2,78.1,99.1
Taar7a,3,81.2,58.2
Afg3l1,1,61.7,60.6
Afg3l1,2,37.2,42.6
Afg3l1,3,98.9,61.6
Atp6v0a2,1,74.3,72.3
Atp6v0a2,2,24.2,8.87
Atp6v0a2,3,81.8,59.6
Fasn,1,94.6,86.4
Fasn,2,77.2,67.1
Fasn,3,103,81
